Measurements from the supplement of paper PMC12819154, “High-throughput peptide-centric local stability assay extends protein–ligand identification to membrane proteins, tissues and bacteria” (Nature Structural & Molecular Biology, 2025).
This is one part of the list. Most entries show no effect beyond the scatter of the controls.

The chains behind the UniProt entries cited, without tags or fusion partners. Where a name states a change or a piece, a line headed by the entry shows the natural chain unless it says otherwise.
UniProt Q6ZN57: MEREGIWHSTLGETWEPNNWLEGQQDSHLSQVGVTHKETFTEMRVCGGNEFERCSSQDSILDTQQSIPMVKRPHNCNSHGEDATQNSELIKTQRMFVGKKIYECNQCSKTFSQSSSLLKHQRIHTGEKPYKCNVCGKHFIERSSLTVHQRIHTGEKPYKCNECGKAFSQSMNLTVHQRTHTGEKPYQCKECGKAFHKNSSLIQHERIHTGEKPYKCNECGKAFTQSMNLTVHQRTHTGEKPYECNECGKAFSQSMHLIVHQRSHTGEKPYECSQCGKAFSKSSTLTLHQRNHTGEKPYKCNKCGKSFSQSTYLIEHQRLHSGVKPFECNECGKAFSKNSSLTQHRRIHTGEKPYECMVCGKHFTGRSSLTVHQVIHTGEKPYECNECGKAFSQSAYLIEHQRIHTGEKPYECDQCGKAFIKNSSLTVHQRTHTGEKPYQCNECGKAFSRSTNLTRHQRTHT
UniProt Q7L2K0: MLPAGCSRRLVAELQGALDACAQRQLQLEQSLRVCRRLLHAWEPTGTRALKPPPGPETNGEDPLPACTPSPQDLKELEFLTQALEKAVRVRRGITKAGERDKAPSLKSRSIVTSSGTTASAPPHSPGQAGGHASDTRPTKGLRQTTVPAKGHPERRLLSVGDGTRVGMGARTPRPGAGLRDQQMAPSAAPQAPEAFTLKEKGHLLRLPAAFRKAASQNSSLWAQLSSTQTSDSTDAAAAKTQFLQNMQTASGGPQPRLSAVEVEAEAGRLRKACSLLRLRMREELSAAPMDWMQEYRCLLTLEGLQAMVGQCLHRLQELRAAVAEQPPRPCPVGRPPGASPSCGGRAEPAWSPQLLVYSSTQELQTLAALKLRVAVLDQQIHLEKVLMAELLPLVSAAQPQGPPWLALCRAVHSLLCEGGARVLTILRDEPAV
UniProt Q6WKZ4: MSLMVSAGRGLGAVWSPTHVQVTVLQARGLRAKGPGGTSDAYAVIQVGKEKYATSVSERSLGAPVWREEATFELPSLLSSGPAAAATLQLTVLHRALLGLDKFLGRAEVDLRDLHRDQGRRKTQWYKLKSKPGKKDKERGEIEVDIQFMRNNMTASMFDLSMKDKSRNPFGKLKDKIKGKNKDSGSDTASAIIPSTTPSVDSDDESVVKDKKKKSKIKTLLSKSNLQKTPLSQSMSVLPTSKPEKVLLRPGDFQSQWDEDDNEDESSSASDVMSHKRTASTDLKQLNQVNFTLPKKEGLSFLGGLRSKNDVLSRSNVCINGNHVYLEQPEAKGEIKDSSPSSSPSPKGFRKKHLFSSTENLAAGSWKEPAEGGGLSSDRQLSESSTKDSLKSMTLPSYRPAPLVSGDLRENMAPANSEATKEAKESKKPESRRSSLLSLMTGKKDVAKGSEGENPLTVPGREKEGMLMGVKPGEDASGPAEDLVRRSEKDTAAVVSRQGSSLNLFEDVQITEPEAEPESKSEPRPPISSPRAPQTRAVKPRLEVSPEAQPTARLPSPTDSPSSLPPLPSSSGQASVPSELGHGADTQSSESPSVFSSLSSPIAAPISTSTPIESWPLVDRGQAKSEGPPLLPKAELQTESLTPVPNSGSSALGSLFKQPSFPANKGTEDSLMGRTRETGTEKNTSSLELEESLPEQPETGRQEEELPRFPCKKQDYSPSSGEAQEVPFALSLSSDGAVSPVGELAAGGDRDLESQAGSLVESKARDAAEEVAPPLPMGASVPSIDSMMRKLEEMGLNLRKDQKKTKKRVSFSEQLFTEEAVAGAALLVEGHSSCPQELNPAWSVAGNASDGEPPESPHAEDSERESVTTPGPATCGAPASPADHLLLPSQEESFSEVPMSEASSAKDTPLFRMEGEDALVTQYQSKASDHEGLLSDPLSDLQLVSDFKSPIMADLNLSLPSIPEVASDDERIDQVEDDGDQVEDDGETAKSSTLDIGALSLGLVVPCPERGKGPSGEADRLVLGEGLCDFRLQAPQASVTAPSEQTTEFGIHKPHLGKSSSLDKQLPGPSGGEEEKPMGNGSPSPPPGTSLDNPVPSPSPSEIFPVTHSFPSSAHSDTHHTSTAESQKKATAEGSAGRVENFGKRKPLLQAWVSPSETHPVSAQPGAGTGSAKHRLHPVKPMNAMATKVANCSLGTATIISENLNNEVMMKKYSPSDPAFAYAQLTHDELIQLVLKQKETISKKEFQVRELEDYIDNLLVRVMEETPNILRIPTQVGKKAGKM
UniProt Q6ZRI6: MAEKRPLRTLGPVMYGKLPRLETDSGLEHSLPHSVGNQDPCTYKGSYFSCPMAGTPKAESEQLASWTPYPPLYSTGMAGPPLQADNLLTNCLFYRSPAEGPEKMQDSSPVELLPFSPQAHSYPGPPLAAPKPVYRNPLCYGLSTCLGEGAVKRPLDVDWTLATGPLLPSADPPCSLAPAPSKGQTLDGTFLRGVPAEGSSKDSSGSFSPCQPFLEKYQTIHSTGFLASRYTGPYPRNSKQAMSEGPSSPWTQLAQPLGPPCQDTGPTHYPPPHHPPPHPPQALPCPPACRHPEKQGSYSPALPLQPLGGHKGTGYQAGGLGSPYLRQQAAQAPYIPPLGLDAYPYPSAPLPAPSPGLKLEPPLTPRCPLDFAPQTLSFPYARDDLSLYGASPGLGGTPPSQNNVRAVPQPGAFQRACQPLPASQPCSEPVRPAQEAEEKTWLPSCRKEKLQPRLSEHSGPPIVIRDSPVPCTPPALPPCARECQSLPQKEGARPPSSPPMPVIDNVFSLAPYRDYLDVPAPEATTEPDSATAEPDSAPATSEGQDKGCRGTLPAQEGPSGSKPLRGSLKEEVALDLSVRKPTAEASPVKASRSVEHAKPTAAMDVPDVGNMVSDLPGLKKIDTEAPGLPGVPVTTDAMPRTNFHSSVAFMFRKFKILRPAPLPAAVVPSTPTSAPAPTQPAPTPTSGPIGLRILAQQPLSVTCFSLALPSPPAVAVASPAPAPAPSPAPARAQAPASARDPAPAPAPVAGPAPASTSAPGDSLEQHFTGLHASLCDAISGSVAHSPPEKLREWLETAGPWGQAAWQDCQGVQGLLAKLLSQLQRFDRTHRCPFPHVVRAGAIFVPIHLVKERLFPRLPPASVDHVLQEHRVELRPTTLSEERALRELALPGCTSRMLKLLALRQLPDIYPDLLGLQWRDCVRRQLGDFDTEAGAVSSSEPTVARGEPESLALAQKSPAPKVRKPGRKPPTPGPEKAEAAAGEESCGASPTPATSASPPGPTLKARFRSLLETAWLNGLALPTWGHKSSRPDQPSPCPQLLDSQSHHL
UniProt Q86UL3: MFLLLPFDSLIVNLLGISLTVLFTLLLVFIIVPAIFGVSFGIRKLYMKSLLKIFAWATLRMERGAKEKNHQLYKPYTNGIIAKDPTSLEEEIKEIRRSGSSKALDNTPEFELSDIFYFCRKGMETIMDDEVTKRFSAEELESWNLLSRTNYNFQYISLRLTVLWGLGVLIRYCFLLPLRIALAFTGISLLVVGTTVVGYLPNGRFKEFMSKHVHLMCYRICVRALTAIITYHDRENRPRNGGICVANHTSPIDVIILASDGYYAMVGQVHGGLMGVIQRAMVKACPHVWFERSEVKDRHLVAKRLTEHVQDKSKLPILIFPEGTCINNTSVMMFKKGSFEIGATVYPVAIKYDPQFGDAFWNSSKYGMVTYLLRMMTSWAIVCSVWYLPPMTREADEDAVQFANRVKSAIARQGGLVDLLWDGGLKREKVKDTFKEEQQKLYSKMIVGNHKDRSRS
UniProt Q7L1Q6: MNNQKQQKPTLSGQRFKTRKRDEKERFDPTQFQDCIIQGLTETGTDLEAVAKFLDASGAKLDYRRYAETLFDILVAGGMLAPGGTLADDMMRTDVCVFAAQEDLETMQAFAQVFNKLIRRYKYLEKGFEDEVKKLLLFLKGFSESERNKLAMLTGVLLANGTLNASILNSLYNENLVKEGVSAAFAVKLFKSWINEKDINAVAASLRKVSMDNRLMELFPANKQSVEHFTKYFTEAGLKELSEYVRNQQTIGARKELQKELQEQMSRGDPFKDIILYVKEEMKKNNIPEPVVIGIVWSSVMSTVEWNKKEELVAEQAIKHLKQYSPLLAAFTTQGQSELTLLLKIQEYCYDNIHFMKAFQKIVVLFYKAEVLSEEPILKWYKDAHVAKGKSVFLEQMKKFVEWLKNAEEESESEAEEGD
UniProt Q7LG56, whole entry: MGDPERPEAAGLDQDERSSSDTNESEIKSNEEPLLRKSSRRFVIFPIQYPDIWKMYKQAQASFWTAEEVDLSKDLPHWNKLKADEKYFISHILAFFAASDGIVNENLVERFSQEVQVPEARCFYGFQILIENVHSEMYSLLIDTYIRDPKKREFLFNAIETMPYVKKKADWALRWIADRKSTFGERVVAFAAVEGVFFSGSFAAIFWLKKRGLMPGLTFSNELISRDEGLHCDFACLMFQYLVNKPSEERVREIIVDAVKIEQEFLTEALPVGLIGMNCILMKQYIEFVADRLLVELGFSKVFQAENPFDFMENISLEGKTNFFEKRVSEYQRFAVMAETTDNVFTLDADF
UniProt Q7RTT6, whole entry: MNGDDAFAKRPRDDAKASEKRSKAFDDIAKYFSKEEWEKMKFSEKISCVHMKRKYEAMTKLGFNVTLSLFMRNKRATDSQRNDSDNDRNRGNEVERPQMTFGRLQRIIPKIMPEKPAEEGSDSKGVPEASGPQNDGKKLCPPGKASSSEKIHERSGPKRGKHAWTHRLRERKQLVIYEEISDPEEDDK
UniProt Q7Z6W7: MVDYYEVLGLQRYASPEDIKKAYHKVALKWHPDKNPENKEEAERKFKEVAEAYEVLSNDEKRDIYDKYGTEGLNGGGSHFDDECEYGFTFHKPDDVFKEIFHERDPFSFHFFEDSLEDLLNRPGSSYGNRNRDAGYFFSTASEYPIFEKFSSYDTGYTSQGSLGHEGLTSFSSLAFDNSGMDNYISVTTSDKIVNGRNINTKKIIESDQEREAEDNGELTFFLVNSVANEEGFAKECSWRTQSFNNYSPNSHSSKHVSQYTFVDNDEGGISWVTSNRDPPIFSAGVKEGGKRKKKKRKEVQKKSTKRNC
UniProt Q6ZTA4: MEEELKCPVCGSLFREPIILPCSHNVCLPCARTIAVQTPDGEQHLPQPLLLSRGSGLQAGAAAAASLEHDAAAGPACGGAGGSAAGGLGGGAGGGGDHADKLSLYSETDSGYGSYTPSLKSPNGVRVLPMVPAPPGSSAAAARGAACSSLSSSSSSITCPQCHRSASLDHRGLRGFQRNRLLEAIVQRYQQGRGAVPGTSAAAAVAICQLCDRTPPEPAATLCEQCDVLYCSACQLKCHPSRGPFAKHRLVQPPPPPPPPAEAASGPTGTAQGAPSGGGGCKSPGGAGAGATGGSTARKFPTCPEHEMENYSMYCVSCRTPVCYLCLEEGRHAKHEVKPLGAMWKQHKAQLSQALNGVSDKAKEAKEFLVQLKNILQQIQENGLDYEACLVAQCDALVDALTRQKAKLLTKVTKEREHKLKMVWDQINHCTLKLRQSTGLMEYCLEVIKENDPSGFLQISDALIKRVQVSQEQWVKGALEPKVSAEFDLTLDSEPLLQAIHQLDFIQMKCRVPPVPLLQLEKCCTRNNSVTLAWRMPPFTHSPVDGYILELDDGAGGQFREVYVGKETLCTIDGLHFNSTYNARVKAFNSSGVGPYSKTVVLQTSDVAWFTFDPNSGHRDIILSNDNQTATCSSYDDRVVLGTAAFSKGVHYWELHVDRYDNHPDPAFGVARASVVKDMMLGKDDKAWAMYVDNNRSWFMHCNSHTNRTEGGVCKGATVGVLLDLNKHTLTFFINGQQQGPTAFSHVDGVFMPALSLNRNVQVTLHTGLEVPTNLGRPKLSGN
UniProt Q6ZVC0: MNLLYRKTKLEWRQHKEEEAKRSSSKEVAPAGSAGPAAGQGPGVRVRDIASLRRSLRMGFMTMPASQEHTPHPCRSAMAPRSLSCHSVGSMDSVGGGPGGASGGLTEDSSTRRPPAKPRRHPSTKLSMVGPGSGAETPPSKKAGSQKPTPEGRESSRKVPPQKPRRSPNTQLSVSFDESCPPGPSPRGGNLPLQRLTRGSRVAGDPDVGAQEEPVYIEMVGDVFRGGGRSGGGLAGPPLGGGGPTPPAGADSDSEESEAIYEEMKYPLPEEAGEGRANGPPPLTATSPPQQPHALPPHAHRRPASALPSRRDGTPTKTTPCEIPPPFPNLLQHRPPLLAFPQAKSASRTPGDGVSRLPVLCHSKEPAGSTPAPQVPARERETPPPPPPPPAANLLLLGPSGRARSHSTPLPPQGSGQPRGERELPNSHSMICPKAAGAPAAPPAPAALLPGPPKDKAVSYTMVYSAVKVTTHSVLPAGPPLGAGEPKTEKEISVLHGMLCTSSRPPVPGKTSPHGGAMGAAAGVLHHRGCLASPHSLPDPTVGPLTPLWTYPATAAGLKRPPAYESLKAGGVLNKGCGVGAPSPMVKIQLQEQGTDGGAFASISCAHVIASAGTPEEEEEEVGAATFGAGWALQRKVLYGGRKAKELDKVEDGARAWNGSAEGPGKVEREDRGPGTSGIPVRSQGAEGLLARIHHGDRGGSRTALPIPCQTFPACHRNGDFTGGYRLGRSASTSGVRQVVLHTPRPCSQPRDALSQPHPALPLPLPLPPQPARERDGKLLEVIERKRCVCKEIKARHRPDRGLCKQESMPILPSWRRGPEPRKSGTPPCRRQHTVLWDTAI

Compound: Cc1nc(Nc2ncc(C(=O)Nc3c(C)cccc3Cl)s2)cc(N2CCN(CCO)CC2)n1 [dasatinib]
Assay: log2 fold change of tryptic peptide abundance, ligand vs vehicle (limited proteolysis) (log2 ratio); higher = more trypsin-susceptible (destabilized)
Conditions: ligand concentration: 5 uM; sample: K562 cleared lysate

Target	log2 fold change
UniProt Q6ZN57 (peptide sequence: IHTGEKPYECDQCGK, peptide start residue: 403)	0.0564
ATF7IP (peptide sequence: QVNPQNSVTVR, peptide start residue: 1088) (UniProt Q6VMQ6)	-0.573
TICRR (peptide sequence: AAAFMGTPQNQTHQQPHVLR, peptide start residue: 1254) (UniProt Q7Z2Z1)	-0.265
ZFHX4 (peptide sequence: QQQEQQQKPVQAK, peptide start residue: 3287) (UniProt Q86UP3)	-0.31
MFSD6 (peptide sequence: AQPVPCETHSDPSR, peptide start residue: 738) (UniProt Q6ZSS7)	0.0126
TEDC2 (peptide sequence: LLSVGDGTR, peptide start residue: 157) (UniProt Q7L2K0)	-0.278
NOL8 (peptide sequence: SKNPISRPLEGK, peptide start residue: 668) (UniProt Q76FK4)	0.382
RAB11FIP1 (peptide sequence: KLEEMGLNLR, peptide start residue: 790) (UniProt Q6WKZ4)	0.426
ATG9A (peptide sequence: PGAPETTALHGGFQR, peptide start residue: 769) (UniProt Q7Z3C6)	0.449
C15orf39 (peptide sequence: AVPQPGAFQR, peptide start residue: 406) (UniProt Q6ZRI6)	-0.558
GPAT4 (peptide sequence: NHQLYKPYTNGIIAK, peptide start residue: 69) (UniProt Q86UL3)	1.05
UniProt Q7LBC6 (peptide sequence: NIIYHAVK, peptide start residue: 1738)	-0.393
UniProt Q86SX3 (peptide sequence: AGGCGRGPEWSAAR, peptide start residue: 387)	-0.354
UniProt Q7L1Q6 (peptide sequence: GFSESERNK, peptide start residue: 141)	0.287
UNC13D (peptide sequence: QQHHQPMVQGIPEAGK, peptide start residue: 474) (UniProt Q70J99)	0.125
MRPL10 (peptide sequence: EIAAVFQDNR, peptide start residue: 85) (UniProt Q7Z7H8)	-0.217
RRM2B (peptide sequence: SNEEPLLRK, peptide start residue: 29) (UniProt Q7LG56)	0.274
PIK3AP1 (peptide sequence: QTDLEITVPIR, peptide start residue: 670) (UniProt Q6ZUJ8)	0.439
UniProt Q7RTT6 (peptide sequence: YFSKEEWEK, peptide start residue: 31)	0.0239

Target	log2 fold change
CEP128 (peptide sequence: LRQTETEK, peptide start residue: 274) (UniProt Q6ZU80)	0.213
PRPF39 (peptide sequence: VVVLFER, peptide start residue: 372) (UniProt Q86UA1)	-0.212
RPAIN (peptide sequence: LVGSPPWKEAFR, peptide start residue: 15) (UniProt Q86UA6)	0.172
PABPN1 (peptide sequence: LKELQNEVEK, peptide start residue: 136) (UniProt Q86U42)	0.106
UniProt Q7Z3D6 (peptide sequence: GIGHLLCKDELLK, peptide start residue: 310)	0.204
UniProt Q6ZU64 (peptide sequence: EEERDEKEEK, peptide start residue: 234)	-0.163
GIGYF2 (peptide sequence: RQQEEILRR, peptide start residue: 763) (UniProt Q6Y7W6)	-0.602
AKNA (peptide sequence: GVGSAGWPDRVTFR, peptide start residue: 1203) (UniProt Q7Z591)	0.321
UniProt Q6ZSZ6 (peptide sequence: KEPEKEK, peptide start residue: 500)	0.0785
UniProt Q7Z6W7 (peptide sequence: WHPDKNPENKEEAER, peptide start residue: 30)	0.0744
SMIM29 (peptide sequence: VVHGWQSGYQHK, peptide start residue: 82) (UniProt Q86T20)	-0.306
MED13L (peptide sequence: LLAQPNKR, peptide start residue: 672) (UniProt Q71F56)	-0.198
TRIM67 (peptide sequence: EFLVQLK, peptide start residue: 367) (UniProt Q6ZTA4)	0.159
UniProt Q6XUX3 (peptide sequence: KVAQEAIESLSASK, peptide start residue: 567)	0.486
UniProt Q6ZVC0 (peptide sequence: AGGVLNK, peptide start residue: 569)	0.173
UniProt Q7Z736 (peptide sequence: EGGGGAGTAAAVLGGWKR, peptide start residue: 619)	-0.265
CLASP1 (peptide sequence: GPPVTPSSEKR, peptide start residue: 707) (UniProt Q7Z460)	-0.296
USP54 (peptide sequence: EFIPDEPSKPPSYDIK, peptide start residue: 612) (UniProt Q70EL1)	-0.295

An excerpt of these results, with each value named.
C15orf39 (peptide sequence: AVPQPGAFQR, peptide start residue: 406) (UniProt Q6ZRI6)
  log2 fold change: -0.558
GPAT4 (peptide sequence: NHQLYKPYTNGIIAK, peptide start residue: 69) (UniProt Q86UL3)
  log2 fold change: 1.05
UniProt Q7LBC6 (peptide sequence: NIIYHAVK, peptide start residue: 1738)
  log2 fold change: -0.393
